This test has as its target T1, JAK3 kinase (Homo sapiens, UniProt P52333).
T1 sequence (P52333 1-1124): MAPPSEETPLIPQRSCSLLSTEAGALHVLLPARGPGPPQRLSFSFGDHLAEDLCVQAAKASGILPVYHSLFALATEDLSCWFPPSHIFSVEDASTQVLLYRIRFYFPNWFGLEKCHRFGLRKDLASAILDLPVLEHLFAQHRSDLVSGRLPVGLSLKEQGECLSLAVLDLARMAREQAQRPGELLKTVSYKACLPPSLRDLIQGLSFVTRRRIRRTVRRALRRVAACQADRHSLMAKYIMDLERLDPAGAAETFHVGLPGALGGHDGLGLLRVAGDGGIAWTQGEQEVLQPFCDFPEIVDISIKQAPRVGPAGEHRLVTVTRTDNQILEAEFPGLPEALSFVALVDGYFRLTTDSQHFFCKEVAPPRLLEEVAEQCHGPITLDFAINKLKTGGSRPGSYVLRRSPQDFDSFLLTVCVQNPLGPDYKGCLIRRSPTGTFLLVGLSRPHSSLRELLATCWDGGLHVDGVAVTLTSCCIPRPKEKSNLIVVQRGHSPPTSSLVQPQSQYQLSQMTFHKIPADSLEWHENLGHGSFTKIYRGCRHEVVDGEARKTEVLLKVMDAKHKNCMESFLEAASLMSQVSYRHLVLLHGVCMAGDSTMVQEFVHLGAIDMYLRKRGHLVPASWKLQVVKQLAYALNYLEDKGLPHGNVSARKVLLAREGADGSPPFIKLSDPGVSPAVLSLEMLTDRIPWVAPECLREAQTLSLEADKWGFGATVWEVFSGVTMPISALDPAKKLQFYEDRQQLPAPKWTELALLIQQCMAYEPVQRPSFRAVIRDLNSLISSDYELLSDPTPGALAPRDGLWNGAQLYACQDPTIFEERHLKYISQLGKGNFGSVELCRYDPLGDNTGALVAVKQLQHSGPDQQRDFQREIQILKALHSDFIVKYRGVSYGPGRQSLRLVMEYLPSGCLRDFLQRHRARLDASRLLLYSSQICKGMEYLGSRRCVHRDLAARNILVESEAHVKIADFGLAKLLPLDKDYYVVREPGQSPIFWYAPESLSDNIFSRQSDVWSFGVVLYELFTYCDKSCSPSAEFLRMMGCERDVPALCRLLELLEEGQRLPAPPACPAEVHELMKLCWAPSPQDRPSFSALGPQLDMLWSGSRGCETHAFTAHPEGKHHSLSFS
Nature of the test: Mobility shift assay, in vitro JAK3 kinase inhibitory activity. Format: biochemical. The following applies: Example 136. The method, then: A Mobility shift assay was adopted to detect compounds to be tested (see list below) for in vitro inhibitory activity on the enzyme activity of JAK3 kinase.
The compound was dissolved in 100% DMSO to formulate a 10 mM stock solution, which was stored in a −20° C. refrigerator with protection from light.
The compounds were diluted with gradients into solutions with a final concentration of 100 times in a 384-well plate. Then 250 nL was transferred to a 384 reaction plate with Echo550 for later use. […]
Among them: Conversion %_sample was the conversion rate reading of the sample; Conversion %_min was the mean value of the negative control wells, representing the conversion rate reading of the wells without enzyme activity; Conversion % max was the mean value of the positive control wells, representing the conversion rate reading of the wells without compound inhibition; and % Inhibition represented the percentage inhibition rate. […]

One may read the IC50 as the concentration at which inhibition is half-maximal.

In the case of `CCS(=O)(=O)N1CCN(c2ccc(Nc3ncc(C(N)=O)c(NC4CC4)n3)cc2)CC1` [Cerdulatinib, reference compound], the half-inhibitory concentration (IC50) amounted to 0.65 nM.

These data come from US20260158031A1, “AROMATIC HETEROCYCLIC COMPOUND, PHARMACEUTICAL COMPOSITION CONTAINING THE SAME, AND USE THEREOF” (HANG ZHOU YUHONG PHARMATECH CO., LTD., priority 2021, published 2026).
